These are yes or no findings as the source states them, for the method shown. Binding seen in cells or lysates may run through a third protein. Binding can be weak; no strength is given.
Target: T1, Sec62 (human) (UniProt Q99442)
T1 sequence: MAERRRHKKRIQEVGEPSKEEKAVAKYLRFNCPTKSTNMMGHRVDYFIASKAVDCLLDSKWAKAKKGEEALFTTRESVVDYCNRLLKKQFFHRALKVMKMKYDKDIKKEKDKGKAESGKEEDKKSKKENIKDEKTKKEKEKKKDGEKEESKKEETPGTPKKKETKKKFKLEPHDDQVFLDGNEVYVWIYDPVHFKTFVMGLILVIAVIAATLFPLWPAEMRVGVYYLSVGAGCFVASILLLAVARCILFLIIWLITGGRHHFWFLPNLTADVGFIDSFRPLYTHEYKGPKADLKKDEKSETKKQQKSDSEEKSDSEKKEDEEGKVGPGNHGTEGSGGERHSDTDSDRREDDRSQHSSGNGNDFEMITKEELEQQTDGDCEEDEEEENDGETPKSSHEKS
Assay: co-IP; Huh7 cell lysate (50 mM HEPES, 150 mM NaCl, 1 mM EDTA, 1% CHAPS, with or without 50 μg/ml RNaseA). Legend: Co-IP with an anti-Sec62 antibody, Western blot for integrin αV and α5. Methods: M2 FLAG agarose resin, 4 °C overnight, elution with FLAG peptide

binding	Substance
binds	integrin αV (human (endogenous in Huh7))
binds	integrin α5 (human (endogenous in Huh7))
